In PubChem BioAssay AID540303 (National Center for Advancing Translational Sciences (NCATS), 2011):
The campaign covered roughly 330,000 compounds. About 1,000 (0.3%) were called active. The shares of active, inactive and inconclusive entries below differ from those in the screen. The call rests on the fitted dose curve; in most records, active means well fitted inhibition curve with a large enough effect; inconclusive means small, poorly fitted or top-dose-only effect; inactive means no such curve, though single readings can be large or run the other way; tested in mouse RAW 264.7 cells. Potencies beside an inconclusive call are fits to weak or partial responses and may not hold up.

Assay: qHTS for Inhibitors of Cell Surface uPA Generation; further: nearly all actives have a fitted effect of over 55% in size
Settings: cell surface uPA generation assay; series mostly up to 38.3 µM; activity change, negative = inhibition: at the top concentration
Method in brief: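 ATP-Lite luminescence in RAW 264.7 cells after 24 h of exposure to compound, tested up to 38.3 uM final in 1:5 steps. Raised ATP reflects inhibition of uPA-dependent LF delivery to the cytoplasm.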
On the % scale 0 is the no-effect control and ±100 the full control effect; potency means the concentration at half of the fitted maximal effect.

| Compound | activity change, negative = inhibition | Potency |
| --- | --- | --- |
| COc1cccc(CC2(CO)CCCN(Cc3cnn(-c4ccccc4)c3)C2)c1 (centres undefined) | inactive: -6.71% | – |
| CCOC(=O)c1ccccc1NC(=O)CN(c1ccccc1OCC)S(C)(=O)=O | inactive: 1.63% | – |
| O=C(Nc1ccc(Cc2ccncc2)cc1)c1ccc(S(=O)(=O)N2CCOCC2)cc1 | inactive: -7.49% | – |
| Cc1ccc(N2CC(NC(=O)C(=O)c3c(C)[nH]c4ccccc34)CC2=O)cc1C (centres undefined) | inactive: 9.81% | – |
| CCOC(=O)N1CCC(NC(=O)C2CCCN(Cc3nc(-c4cccc(Cl)c4)oc3C)C2)CC1 (centres undefined) | inactive: -18.1% | – |
| CCN(CC)CCN(C(=O)c1cc2ccccc2cc1OC)c1nc2ccc(OC)cc2s1 | – | inconclusive: 10 µM [inhibitor, single point] |
| Nc1nc2ccc(OC(F)(F)F)cc2s1 | – | inconclusive: 12.6 µM [inhibitor, single point] |
| CSc1ccccc1NC(=O)C1=CC(c2ccc(C)cc2)=NS(=O)(=O)N1C | – | inconclusive: 12.6 µM [inhibitor, single point] |
| O=C(NNS(=O)(=O)c1ccccc1[N+](=O)[O-])c1ccc(F)cc1 | – | inconclusive: 28.2 µM [inhibitor, single point] |
| CCc1nnc(NC(=O)c2cc(S(=O)(=O)N3CCN(c4ccccc4)CC3)ccc2Cl)s1 | inactive: 1.39% | – |
| CCc1ccc(NC(=O)CCc2ccc(C)o2)cc1 | – | inconclusive: 3.55 µM [inhibitor, partial curve, poor fit] |
| O=C(O)Cc1ccc(NC(=S)Nc2cccc(Cl)c2Cl)cc1 | inactive: 0.506% | – |
| COc1ccc(Nc2nc(N)c(C(=O)c3ccc(F)cc3)s2)cc1 | – | inconclusive: 0.0126 µM [inhibitor, full curve, poor fit] |
| Cn1nc2c3cc(F)ccc3n(Cc3ccc(F)cc3)cc-2c1=O | inactive: -4.19% | – |
| CC1(C)CCCN(C(=O)c2coc(=O)c(Br)c2)C1 | inactive: 3.11% | – |
| COc1cc(/C=N/NC(=O)c2cc(-c3cccs3)nc3ccccc23)ccc1O | – | inconclusive: 12.6 µM [inhibitor, single point] |
| O=C(/C=C\c1ccccc1)Oc1cccc2cccnc12 | – | inconclusive: 5.01 µM [inhibitor, partial curve, poor fit] |
| COc1ccc(-n2nnc3c(SCC(=O)NCc4ccco4)ncnc32)cc1 | inactive: -10.6% | – |
| O=c1c2ccccc2nc2ccc(NCc3ccco3)nn12 | inactive: -9.58% | – |
| CC1(C)CC2C1CCC1(O)CC2(C)CCC1N(O)c1ccc(C(=O)NCCO)cn1 (centres undefined) | – | inconclusive: 12.6 µM [inhibitor, single point] |
| O=C(Nc1ccc(-c2csc(Nc3cccc(C(F)(F)F)c3)n2)cc1)c1ccccc1 | – | inconclusive: 12.6 µM [inhibitor, single point] |
| O=C(CN1C(=O)c2ccccc2C1=O)Nc1cc(C(=O)O)cc(C(=O)O)c1 | – | inconclusive: 3.16 µM [inhibitor, partial curve, poor fit] |
| CC(C)(C)CC(C)(C)NC(=O)Nc1cccc([N+](=O)[O-])c1 | – | active: 10 µM |

Compounds above with a nitro group on carbon, in the order listed:

| Compound | activity change, negative = inhibition | Potency |
| --- | --- | --- |
| O=C(NNS(=O)(=O)c1ccccc1[N+](=O)[O-])c1ccc(F)cc1 | – | inconclusive: 28.2 µM [inhibitor, single point] |
| CC(C)(C)CC(C)(C)NC(=O)Nc1cccc([N+](=O)[O-])c1 | – | active: 10 µM |

Remaining list, next part:

| Compound | activity change, negative = inhibition | Potency |
| --- | --- | --- |
| ONC(=Nc1ccccc1Cl)c1c(F)cccc1F | – | inconclusive: 3.16 µM [inhibitor, partial curve, poor fit] |
| Cc1ccc(S(=O)(=O)/N=C2\C(=O)c3ccccc3C([O-])=C2n2cc[n+](CCC(C)C)c2)cc1 | – | inconclusive: 10 µM [inhibitor, partial curve, poor fit] |
| O=C(Nc1ccccc1C(F)(F)F)c1cc2ccccc2o1 | – | inconclusive: 11.2 µM [inhibitor, partial curve, poor fit] |
| CCOc1ccc(/C=N/NC(=O)c2ccc(CSc3nc4ccccc4[nH]3)cc2)cc1 | – | inconclusive: 12.6 µM [inhibitor, partial curve, poor fit] |
| CC(=O)c1c(C)[nH]c(C(=O)CN2CCN(S(=O)(=O)c3ccccc3)CC2)c1C | – | inconclusive: 1.26 µM [inhibitor, single point] |
| Cc1ccc(C)c(C2NC(=O)c3ccccc3N2)c1 (centres undefined) | – | inconclusive: 0.794 µM [inhibitor, full curve, poor fit] |
| COc1ccc(CCNC(=O)CSc2nc3[nH]ncc3c(=O)n2-c2ccc(Br)cc2)cc1OC | – | inconclusive: 14.1 µM [inhibitor, partial curve, poor fit] |
| COc1cc(C(=O)NCC(=O)N2CCN(S(=O)(=O)c3ccccc3C(F)(F)F)CC2)cc(OC)c1OC | – | inconclusive: 12.6 µM [inhibitor, single point] |
| Cc1nc(-c2ccccc2)sc1-c1ccnn1C | – | inconclusive: 10 µM [inhibitor, single point] |
| O=C(CSc1ncccn1)N/N=C/c1cccs1 | inactive: -9.15% | – |
| O=C(CCS(=O)(=O)c1ccccc1)Nc1nc2ccc(F)cc2s1 | inactive: -8.18% | – |
| C[C@@H]1CN([C@H](C)CO)C(=O)Cc2cc(NS(=O)(=O)c3ccc(Cl)cc3)ccc2O[C@H]1CN(C)Cc1ccc(C(F)(F)F)cc1 | – | inconclusive: 12.6 µM [inhibitor, single point] |
| Cc1ccc(C)c(CSCc2nc3ccccc3[nH]2)c1 | inactive: 3.15% | – |
| COc1cc(/C=N/NC(=O)c2cc(C3CC3)[nH]n2)ccc1O | – | inconclusive: 7.94 µM [inhibitor, partial curve, poor fit] |
| CCOc1ccc(C(C(=O)NC2CCCC2)N(Cc2ccccc2)C(=O)c2nsc(Cl)c2Cl)cc1 (centres undefined) | – | inconclusive: 22.4 µM [inhibitor, single point] |
| CSCCC(NC(=O)c1ccc(Cl)cc1Cl)C(=O)N1CCCCCCC1 (centres undefined) | inactive: -3.49% | – |
| CCc1ccc(C(=O)NNc2ccc(F)cc2)cc1 | inactive: 0.454% | – |
| CCc1ccc(C(=O)NNc2cc(Cl)ccc2Cl)cc1 | – | inconclusive: 12.6 µM [inhibitor, single point] |
| CC(C)C[C@H](NC(=O)c1[nH]cnc1C(=O)N[C@@H](C)C(=O)OC(C)(C)C)C(=O)OCc1ccccc1 | – | inconclusive: 10 µM [inhibitor, single point] |
| COc1cccc(C2C3=C(CC(C)(C)CC3=O)Nc3cc4c(cc32)OCO4)c1 (centres undefined) | – | inconclusive: 28.2 µM [inhibitor, single point] |
| Cc1cc(C)nc(SCCCNCc2ccccc2)n1 | inactive: 16.4% | – |
| CN(Cc1ccccc1)C(=O)c1cccc(NC(=O)Cc2ccc(NC(=O)C3CCN(C(=O)CCc4ccccc4)CC3)cc2)c1 | – | inconclusive: 22.4 µM [inhibitor, single point] |
| CC(C)(C)c1cc(C2=CSC3=NCCN23)cc(C(C)(C)C)c1O | – | inconclusive: 7.94 µM [inhibitor, single point] |

| Compound | activity change, negative = inhibition | Potency |
| --- | --- | --- |
| CCN(C(=O)CN1CCCCCC1)c1c(N)n(Cc2ccccc2)c(=O)[nH]c1=O | inactive: 4.22% | – |
| Cc1nc2ccccn2c1-c1ccnn1S(=O)(=O)c1ccc(F)cc1 | – | inconclusive: 12.6 µM [inhibitor, single point] |
| COc1ccc(/C=C2\C(=O)ON=C2c2ccccc2)cc1 | inactive: 3.09% | – |
| CC(C)C[C@H](NC(=O)c1nc[nH]c1C(=O)N[C@@H](CC(C)C)C(=O)OC(C)(C)C)C(=O)OCc1ccccc1 | – | inconclusive: 28.2 µM [inhibitor, single point] |
| O=C(CN(Cc1ccco1)C(=O)c1ccc([N+](=O)[O-])cc1)Nc1ccccc1C(F)(F)F | – | inconclusive: 22.4 µM [inhibitor, single point] |
| CCC(C)NC(=S)Nc1ccc2nc(N3CCN(CC)CC3)cc(C)c2c1 (centres undefined) | – | inconclusive: 12.6 µM [inhibitor, single point] |
| COc1ccc(/C=N/NC(=O)c2cc3c(ccc4ccccc43)o2)c(OC)c1 | – | inconclusive: 11.2 µM [inhibitor, single point] |
| O=S(=O)(Nc1ccc(Br)cc1)c1cccc(NS(=O)(=O)c2cccs2)c1 | – | inconclusive: 11.2 µM [inhibitor, partial curve] |
| O=C(CN1CCN(C(=O)c2ccc(-c3nc4ccccc4s3)o2)CC1)Nc1ccc(F)cc1 | inactive: -13.9% | – |
| CCN(CC(=O)NCc1cccs1)C(=O)c1cc(Br)ccc1O | – | inconclusive: 3.16 µM [inhibitor, partial curve, poor fit] |
| COc1ccc(CCC(=O)NCCOc2ccc(C)cc2)cc1 | inactive: 16.3% | – |
| CC(C)C[C@H](CO)Nc1nc(Nc2cccc(Cl)c2)c2ncn(C(C)C)c2n1 | – | inconclusive: 8.91 µM [inhibitor, partial curve, poor fit] |
| Cn1c(=O)c2c(nc(NCCO)n2CCc2ccccc2)n(C)c1=O | inactive: -10.8% | – |
| O=C(c1ccccc1)N1CCN(c2ccc(NCc3ccc4c(c3)OCO4)cc2)CC1 | – | inconclusive: 5.62 µM [inhibitor, partial curve, poor fit] |
| COC(=O)C1CCCN1C(=O)C1CCCN1C(=O)CNC(=O)OCc1ccccc1 (centres undefined) | inactive: -6.01% | – |
| Nc1nnc(CC(=O)N/N=C/c2cc([N+](=O)[O-])cc(Br)c2O)s1 | inactive: -11.8% | – |
| COc1ccc(C(=O)N=C2SC3CS(=O)(=O)CC3N2c2ccc(N(C)C)cc2)cc1OC (centres undefined) | – | inconclusive: 10 µM [inhibitor, single point] |
| Cc1cc(C)c2sc(N(CCCN(C)C)C(=O)c3ccc(Br)s3)nc2c1 | inactive: -17.3% | – |
| CCOC(=O)C1C(=O)C(=O)N(C2CCCCC2)C1C(=O)OCC (centres undefined) | inactive: -1.41% | – |
| O=C(c1cnn2ccccc12)N1CCc2ccccc21 | – | inconclusive: 10 µM [inhibitor, single point] |
| N#Cc1c(N2CCCCC2)nc(N)c2c(N)nc3c(c12)CC(c1ccccc1)O3 (centres undefined) | inactive: 0.135% | – |
| COC(=O)c1cc(=O)n(Cc2cccs2)c(=Nc2ccccc2)s1 | – | inconclusive: 8.91 µM [inhibitor, single point] |
| CSc1nc(-c2ccccc2F)c(C#N)c(=O)n1C | – | inconclusive: 31.6 µM [inhibitor, partial curve, poor fit] |

Part of the list above, as tab-separated lines.
Compound	activity change, negative = inhibition	Potency
CCN(C(=O)CN1CCCCCC1)c1c(N)n(Cc2ccccc2)c(=O)[nH]c1=O	inactive: 4.22%	–
CC(C)C[C@H](CO)Nc1nc(Nc2cccc(Cl)c2)c2ncn(C(C)C)c2n1	–	inconclusive: 8.91 µM [inhibitor, partial curve, poor fit]
Cc1cc(C)c2sc(N(CCCN(C)C)C(=O)c3ccc(Br)s3)nc2c1	inactive: -17.3%	–
